Results reported in the supplement of paper PMC10849652.
Some of the results follow.

Protein sequences, listed by entry. Tags and fused reporters are not part of them. Lines headed by an entry give the natural chain unless they say otherwise; changes in a name come on top.
UniProt Q9NQQ7: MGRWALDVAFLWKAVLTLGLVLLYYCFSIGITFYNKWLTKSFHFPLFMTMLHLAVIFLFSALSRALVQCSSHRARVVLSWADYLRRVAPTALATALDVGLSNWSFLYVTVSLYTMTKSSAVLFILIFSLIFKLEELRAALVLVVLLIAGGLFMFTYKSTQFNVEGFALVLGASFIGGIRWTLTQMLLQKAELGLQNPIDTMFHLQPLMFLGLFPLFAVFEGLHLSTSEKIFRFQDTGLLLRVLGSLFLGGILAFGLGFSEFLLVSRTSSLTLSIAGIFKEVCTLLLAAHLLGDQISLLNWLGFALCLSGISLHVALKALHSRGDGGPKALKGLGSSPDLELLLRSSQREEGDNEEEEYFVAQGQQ
UniProt O43772: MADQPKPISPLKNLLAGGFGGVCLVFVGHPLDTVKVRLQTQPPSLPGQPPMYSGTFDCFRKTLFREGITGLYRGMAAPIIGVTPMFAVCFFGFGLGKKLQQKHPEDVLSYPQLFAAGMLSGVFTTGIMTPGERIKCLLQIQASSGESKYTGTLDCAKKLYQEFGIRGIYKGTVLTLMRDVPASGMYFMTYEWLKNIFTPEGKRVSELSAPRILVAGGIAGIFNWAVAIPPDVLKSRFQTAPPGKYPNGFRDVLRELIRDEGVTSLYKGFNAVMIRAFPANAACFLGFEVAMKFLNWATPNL
UniProt P16260: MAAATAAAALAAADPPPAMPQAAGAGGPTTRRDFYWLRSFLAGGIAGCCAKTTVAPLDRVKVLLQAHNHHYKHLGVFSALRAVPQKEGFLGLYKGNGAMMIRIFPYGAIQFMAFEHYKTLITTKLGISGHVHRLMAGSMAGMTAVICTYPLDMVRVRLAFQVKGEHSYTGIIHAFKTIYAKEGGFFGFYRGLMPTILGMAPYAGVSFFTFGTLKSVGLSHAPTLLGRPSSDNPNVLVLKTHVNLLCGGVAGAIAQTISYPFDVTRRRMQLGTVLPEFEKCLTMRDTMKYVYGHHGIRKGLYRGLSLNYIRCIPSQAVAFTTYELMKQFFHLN
UniProt L0R6Q1: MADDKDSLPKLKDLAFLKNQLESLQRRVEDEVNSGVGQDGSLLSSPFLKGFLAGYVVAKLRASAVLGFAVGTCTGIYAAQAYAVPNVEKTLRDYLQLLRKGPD
UniProt Q96QD8: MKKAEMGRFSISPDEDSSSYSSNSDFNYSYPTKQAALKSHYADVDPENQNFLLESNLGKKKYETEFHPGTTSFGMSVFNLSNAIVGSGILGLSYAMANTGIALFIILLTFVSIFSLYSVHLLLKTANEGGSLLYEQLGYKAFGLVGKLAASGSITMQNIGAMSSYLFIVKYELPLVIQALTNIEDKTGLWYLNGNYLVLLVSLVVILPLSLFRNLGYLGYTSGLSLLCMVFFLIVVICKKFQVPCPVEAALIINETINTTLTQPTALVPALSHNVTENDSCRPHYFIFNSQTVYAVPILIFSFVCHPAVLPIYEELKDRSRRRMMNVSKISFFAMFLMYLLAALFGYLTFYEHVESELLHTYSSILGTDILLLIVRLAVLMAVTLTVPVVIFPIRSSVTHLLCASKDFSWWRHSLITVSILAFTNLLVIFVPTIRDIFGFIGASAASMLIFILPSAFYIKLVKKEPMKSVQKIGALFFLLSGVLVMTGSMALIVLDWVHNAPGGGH
UniProt Q9Y289: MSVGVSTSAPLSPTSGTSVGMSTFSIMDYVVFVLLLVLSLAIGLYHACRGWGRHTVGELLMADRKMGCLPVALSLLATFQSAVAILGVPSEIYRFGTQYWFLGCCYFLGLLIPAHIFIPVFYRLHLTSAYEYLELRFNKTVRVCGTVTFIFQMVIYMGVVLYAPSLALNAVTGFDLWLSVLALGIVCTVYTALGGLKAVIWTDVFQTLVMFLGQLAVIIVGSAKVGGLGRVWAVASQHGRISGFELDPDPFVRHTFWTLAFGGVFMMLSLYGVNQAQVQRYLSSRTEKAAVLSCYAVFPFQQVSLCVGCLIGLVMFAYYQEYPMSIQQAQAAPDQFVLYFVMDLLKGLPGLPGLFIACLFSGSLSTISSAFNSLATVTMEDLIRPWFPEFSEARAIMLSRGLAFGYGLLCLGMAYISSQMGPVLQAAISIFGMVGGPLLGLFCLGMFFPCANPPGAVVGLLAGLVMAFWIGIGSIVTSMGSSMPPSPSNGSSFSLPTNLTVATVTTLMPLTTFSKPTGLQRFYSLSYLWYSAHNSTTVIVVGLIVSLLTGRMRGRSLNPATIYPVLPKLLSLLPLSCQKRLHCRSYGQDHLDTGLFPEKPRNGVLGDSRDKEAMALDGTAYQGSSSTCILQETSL
UniProt O75387: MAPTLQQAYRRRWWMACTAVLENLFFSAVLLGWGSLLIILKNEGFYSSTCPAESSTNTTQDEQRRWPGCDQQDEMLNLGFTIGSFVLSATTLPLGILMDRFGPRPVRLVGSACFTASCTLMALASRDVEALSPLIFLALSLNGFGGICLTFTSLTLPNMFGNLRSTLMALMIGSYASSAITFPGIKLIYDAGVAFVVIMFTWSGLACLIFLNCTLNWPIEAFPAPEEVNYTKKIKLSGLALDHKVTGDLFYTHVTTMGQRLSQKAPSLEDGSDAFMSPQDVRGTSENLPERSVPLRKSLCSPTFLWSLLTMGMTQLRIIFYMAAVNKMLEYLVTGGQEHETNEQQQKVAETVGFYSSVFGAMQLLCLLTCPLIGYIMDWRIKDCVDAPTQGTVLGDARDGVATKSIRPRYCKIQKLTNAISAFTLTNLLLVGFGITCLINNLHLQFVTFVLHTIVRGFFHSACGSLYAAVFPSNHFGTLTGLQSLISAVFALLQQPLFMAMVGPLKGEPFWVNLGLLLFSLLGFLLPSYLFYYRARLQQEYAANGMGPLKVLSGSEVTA
UniProt P11166: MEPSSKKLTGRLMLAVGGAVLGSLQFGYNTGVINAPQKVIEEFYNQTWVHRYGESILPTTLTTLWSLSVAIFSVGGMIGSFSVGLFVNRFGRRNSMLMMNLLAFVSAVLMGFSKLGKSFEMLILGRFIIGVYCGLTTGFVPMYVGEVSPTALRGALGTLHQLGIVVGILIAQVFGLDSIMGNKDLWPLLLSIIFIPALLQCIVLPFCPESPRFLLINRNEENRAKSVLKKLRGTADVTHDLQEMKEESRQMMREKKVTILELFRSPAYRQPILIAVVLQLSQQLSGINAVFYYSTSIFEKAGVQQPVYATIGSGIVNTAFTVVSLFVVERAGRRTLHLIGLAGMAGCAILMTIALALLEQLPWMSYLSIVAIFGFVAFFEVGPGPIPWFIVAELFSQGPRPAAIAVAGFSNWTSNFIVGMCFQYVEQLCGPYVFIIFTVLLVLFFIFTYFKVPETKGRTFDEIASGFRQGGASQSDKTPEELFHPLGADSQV
UniProt P08195: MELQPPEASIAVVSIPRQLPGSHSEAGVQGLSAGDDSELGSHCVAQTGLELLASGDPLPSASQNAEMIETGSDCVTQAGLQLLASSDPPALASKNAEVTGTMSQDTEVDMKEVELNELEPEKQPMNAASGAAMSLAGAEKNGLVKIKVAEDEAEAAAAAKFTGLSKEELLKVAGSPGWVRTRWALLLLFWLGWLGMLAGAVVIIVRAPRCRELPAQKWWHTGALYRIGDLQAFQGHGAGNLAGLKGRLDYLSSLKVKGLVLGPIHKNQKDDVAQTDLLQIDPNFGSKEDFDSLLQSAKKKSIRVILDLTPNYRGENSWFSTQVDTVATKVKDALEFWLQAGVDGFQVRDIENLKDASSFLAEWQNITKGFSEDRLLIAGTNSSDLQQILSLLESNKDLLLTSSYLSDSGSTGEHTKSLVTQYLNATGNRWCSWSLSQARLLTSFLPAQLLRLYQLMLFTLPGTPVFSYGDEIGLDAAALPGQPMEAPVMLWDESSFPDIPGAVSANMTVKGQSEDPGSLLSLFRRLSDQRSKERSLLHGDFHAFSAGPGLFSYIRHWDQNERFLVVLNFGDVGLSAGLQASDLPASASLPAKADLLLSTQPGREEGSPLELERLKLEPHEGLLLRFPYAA
UniProt Q9Y2D2: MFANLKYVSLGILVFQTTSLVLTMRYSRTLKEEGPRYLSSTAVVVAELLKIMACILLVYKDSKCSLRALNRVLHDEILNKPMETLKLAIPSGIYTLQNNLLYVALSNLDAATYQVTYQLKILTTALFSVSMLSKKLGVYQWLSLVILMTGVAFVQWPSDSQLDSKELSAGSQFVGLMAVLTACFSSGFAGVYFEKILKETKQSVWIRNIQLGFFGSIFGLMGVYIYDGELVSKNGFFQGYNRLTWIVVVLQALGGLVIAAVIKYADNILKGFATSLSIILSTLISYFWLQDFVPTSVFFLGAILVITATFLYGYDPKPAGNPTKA
UniProt Q8IWA5: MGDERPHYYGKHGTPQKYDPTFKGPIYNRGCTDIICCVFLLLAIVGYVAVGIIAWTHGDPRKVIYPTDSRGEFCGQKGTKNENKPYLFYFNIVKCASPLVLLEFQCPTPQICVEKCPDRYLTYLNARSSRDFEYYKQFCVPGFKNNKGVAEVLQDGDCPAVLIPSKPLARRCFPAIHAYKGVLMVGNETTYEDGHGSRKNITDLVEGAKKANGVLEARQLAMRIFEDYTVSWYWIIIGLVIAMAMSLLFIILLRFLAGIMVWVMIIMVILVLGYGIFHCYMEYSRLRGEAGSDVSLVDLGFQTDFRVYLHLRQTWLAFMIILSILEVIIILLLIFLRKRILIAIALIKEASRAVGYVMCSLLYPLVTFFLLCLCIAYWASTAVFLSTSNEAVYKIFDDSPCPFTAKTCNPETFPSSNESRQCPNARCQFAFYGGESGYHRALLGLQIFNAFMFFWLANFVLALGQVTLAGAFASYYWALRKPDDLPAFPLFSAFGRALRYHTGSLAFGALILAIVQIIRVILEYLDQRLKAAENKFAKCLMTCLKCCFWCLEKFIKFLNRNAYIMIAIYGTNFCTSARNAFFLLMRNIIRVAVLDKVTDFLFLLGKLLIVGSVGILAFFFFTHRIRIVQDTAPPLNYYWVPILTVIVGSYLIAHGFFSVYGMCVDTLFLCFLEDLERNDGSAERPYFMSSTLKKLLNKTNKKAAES
UniProt P04920: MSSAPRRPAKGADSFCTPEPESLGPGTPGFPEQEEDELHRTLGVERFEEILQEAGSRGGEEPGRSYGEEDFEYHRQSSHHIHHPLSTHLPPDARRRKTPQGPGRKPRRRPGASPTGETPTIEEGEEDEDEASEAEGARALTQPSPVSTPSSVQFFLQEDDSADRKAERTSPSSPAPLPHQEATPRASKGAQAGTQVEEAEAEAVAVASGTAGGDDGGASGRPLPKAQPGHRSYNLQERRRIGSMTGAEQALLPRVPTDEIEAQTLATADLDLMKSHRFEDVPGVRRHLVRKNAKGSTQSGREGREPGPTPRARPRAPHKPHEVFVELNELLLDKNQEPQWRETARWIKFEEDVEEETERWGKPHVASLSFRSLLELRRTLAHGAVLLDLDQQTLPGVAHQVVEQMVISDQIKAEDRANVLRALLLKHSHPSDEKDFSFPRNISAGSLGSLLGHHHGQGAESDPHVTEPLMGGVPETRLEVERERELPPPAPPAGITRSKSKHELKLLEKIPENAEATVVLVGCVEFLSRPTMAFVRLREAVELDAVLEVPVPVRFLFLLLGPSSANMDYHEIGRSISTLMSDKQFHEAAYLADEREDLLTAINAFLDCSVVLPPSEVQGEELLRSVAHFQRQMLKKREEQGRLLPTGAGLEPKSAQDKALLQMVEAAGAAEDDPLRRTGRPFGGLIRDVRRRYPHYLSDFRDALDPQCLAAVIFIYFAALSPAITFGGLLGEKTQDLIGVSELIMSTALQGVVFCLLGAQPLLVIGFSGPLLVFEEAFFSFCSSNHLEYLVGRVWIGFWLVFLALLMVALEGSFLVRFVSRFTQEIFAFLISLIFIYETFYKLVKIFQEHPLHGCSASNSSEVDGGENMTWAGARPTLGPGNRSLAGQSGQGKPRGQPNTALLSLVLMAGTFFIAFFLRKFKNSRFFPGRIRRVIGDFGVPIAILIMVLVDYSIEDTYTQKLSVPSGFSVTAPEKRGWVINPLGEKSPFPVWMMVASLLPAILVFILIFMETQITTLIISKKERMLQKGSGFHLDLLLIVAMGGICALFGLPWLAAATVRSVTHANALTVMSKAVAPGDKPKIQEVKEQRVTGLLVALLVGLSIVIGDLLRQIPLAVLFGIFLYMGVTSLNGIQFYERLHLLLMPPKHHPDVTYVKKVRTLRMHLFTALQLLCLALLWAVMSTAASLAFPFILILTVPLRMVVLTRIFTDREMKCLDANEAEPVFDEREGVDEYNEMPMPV
UniProt Q8N357: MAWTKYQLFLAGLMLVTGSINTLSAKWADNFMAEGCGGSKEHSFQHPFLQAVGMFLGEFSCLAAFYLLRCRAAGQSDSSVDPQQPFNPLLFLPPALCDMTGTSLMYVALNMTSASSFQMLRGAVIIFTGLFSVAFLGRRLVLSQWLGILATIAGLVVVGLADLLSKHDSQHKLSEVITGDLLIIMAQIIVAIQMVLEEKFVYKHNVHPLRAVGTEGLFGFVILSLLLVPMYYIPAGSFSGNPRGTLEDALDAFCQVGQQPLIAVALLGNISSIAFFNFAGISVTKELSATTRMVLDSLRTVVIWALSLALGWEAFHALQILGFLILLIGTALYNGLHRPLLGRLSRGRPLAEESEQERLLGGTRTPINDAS

Compound: C#Cc1cccc(Nc2ncnc3cc(OCCOC)c(OCCOC)cc23)c1 [erlotinib]
Assay: log2 fold change, soluble protein after heating vs DMSO (PISA); higher = thermal stabilisation; K562 cells, 10 uM, 30 min; active = over 0.2 and 3.5 SD of the protein, either way, in both replicates (recomputed)
Method in brief: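 Quantification of soluble protein used TMTpro 16plex LC-MS/MS, with channel sums equalised. Samples were the supernatant after 21,000xg for 90 min of pooled aliquots from K562 cells (2×10^6 cells/mL) treated with 10 μM compound for 30 min, heated for 3 min over 48°C-58°C, and extracted in PBS with 0.5% NP-40 at 4°C. Values, from duplicates, describe thermal stability against control samples on a log2 fold-change scale.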

log2 fold change, inactive:
SLC12A4 (UniProt Q9UP95) 0.02, SLC35C2 isoform 3 (UniProt Q9NQQ7) 0.002, SLC25A20 (UniProt O43772) 0.006, SLC18B1 (UniProt Q6NT16) -0.011, SLC31A1 (UniProt O15431) -0.024, SLC2A3 (UniProt P11169) 0.011, SLC4A1AP (UniProt Q9BWU0) 0.011, SLC40A1 (UniProt Q9NP59) -0.139, SLC38A1 (UniProt Q9H2H9) 0.014, SLC30A5 (UniProt Q8TAD4) -0.054, SLC25A16 (UniProt P16260) -0.002, SLC35A4 (UniProt L0R6Q1) -0.021, SLC25A4 (UniProt P12235) 0.007, SLC39A6 (UniProt Q13433) -0.017, SLC25A51 (UniProt Q9H1U9) 0.001, SLC38A2 (UniProt Q96QD8) -0.093, SLC38A7 (UniProt Q9NVC3) 0.009, SLC25A46 (UniProt Q96AG3) 0.008, SLC5A6 (UniProt Q9Y289) 0.012, SLC20A1 (UniProt Q8WUM9) 0.002, SLC43A1 (UniProt O75387) -0.065, SLC1A3 (UniProt P43003) 0.025, SLC30A6 isoform 2 (UniProt Q6NXT4) 0.011, SLC25A37 (UniProt Q9NYZ2) 0.01, SLC7A1 (UniProt P30825) 0.009, SLC2A1 (UniProt P11166) -0.037, SLC3A2 isoform 3 (UniProt P08195) 0.031, SLC33A1 (UniProt O00400) 0.005, SLC35A3 isoform 2 (UniProt Q9Y2D2) 0.002, SLC3A2 (UniProt F5GZS6) 0.136, SLC44A2 isoform 2 (UniProt Q8IWA5) 0.059, SLC4A2 (UniProt P04920) 0.015, SLC35F6 (UniProt Q8N357) 0.12, SLC37A4 isoform 2 (UniProt O43826) -0.033, SLC10A4 (UniProt Q96EP9) 0.042, SLC25A1 (UniProt P53007) -0.016, SLBP (UniProt Q14493) 0.006, SLC38A9 (UniProt Q8NBW4) 0.008
